Source: PMC11626200
Results are given in words; binding and its absence hold for the method and conditions named. In cells and extracts the contact can be indirect. Some binding calls cover weakened binding; strength is not graded here.

The chains behind the UniProt entries cited, without tags or fusion partners.
UniProt P08247: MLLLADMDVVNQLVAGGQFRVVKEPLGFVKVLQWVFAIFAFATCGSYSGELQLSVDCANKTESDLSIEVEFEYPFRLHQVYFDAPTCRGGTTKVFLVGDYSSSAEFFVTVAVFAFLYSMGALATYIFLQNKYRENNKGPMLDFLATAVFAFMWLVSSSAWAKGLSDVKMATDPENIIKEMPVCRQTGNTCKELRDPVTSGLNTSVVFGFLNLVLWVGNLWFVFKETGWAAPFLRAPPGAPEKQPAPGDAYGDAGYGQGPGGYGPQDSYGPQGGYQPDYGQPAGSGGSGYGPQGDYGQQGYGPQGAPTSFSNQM
UniProt P63027: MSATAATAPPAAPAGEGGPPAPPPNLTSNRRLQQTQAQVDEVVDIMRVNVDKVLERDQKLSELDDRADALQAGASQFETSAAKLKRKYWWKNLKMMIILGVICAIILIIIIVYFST

Biological target: human synaptophysin (Syp) (human) (UniProt P08247)
Test: FRET or BRET; LuTHy luminescence-based two-hybrid assay: BRET between tagged fusion proteins expressed in mammalian cells; control-corrected BRET (cBRET) ratio, cutoff >=0.03 for membrane proteins

## vesicle-associated membrane protein 2 (VAMP2) (from UniProt P63027 1-116)
  binding: binds
